Laboratory results reported in publication PMC7819943, “Rice protein-binding microarrays: a tool to detect cis-acting elements near promoter regions in rice”.
The other results are listed elsewhere or left out.

Target: T1, OsSMF1 (Oryza sativa, UniProt Q6ZLB0 1-436)
T1 sequence: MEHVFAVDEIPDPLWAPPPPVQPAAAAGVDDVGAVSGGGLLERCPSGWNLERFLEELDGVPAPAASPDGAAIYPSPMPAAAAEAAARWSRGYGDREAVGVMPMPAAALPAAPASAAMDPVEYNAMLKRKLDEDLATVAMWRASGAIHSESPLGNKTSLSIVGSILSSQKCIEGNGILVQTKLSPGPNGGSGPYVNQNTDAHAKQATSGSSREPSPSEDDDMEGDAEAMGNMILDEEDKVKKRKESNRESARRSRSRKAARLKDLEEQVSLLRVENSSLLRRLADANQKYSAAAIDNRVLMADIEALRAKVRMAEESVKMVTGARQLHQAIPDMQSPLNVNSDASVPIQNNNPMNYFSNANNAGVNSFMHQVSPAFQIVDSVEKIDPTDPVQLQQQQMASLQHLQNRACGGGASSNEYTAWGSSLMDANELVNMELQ
Test: protein-binding microarray (RPBM); PBS, 2% BSA, 51.3 ng/ul salmon testes DNA, 50 uM zinc acetate, 200 nM TF, 25 C, 1 h; high values mean tight binding
Details: protein: recombinant; tags: N-terminal polyhistidine and DsRed monomer fusion (pET32a); chain copies: 2; label: CyDye5-dUTP incorporated in the synthesized complementary strand; 3' TTTTT single-stranded linker to array surface; dsDNA, one strand shown
In short: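 Per-feature fluorescence intensity (arbitrary units), read on an Axon 4000B scanner, is the binding signal. Transcription factors carrying an N-terminal polyhistidine tag and DsRed fusion were expressed in E. coli BL21-CodonPlus and purified on Ni–NTA. A custom Agilent array, made double-stranded by primer extension with Cy5-dUTP and blocked with 2% BSA, was incubated with 200 nM protein in PBS, 2% BSA, salmon testes DNA and 50 µM zinc acetate at 25 °C for 1 h and then washed.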

| Sequence | binding signal |
| --- | --- |
| CCAGTGTCAAGCCCAGATGCGGTGGTGGCCCATCATTAGCCGGAGTCACCTAGTGCAG | 3190 fluorescence intensity (a.u.) |
| CGGCCGCCGCGACACCCGCCGCCACGTCGCCCCGCCACGCCGGAGTCACCTAGTGCAG | 9460 fluorescence intensity (a.u.) |
| AGAGGGCGCTGACGTGTGGGCCCCACATAAAATTCTTCCGCGGAGTCACCTAGTGCAG | 11300 fluorescence intensity (a.u.) |
| ATATTCACCACGTCGTCTTCCTCGTCGTCGCCGCTCTATACGGAGTCACCTAGTGCAG | 5040 fluorescence intensity (a.u.) |
| CTGGTTCTGCTGAGGCTGACGTGGCGGCGGGTGGGGCCCACGGAGTCACCTAGTGCAG | 15200 fluorescence intensity (a.u.) |
| CCCATCGGACGACTCAAGTGCAGCCACGTACGCAAAACGCCGGAGTCACCTAGTGCAG | 14100 fluorescence intensity (a.u.) |
| TGTGGGATATTGTTCCGAAGATTTGATTATAATGAATCCACGGAGTCACCTAGTGCAG | 28600 fluorescence intensity (a.u.) |
| AATGTTGACTCCAGGCAATCAGCGTGGCCGCGTCACAGCACGGAGTCACCTAGTGCAG | 3380 fluorescence intensity (a.u.) |
| GTCCCTAACATGTGGGTACACCTGTTGACTCGGCAAATCACGGAGTCACCTAGTGCAG | 3990 fluorescence intensity (a.u.) |
| GTTTTCTTTGTTGTCATCATCCTTGCTGGACTCGTCCTTACGGAGTCACCTAGTGCAG | 5810 fluorescence intensity (a.u.) |
| AGGTGGGCAATGGCATCCGAGTCACCAAGTGGGGCCCACCCGGAGTCACCTAGTGCAG | 7750 fluorescence intensity (a.u.) |
| GAGATTTTCCACCGTGGCTGTGTGTAGGCCCAGTGATGTGCGGAGTCACCTAGTGCAG | 12300 fluorescence intensity (a.u.) |
| CGGCCTGCGTCTGCGTGGCTGCGCCGTGCCGCCGTCGCGCCGGAGTCACCTAGTGCAG | 4370 fluorescence intensity (a.u.) |
| CGAGCCGGAGACTCTGGCGGCGGCGTCGCGCGTTCGAGGACGGAGTCACCTAGTGCAG | 5840 fluorescence intensity (a.u.) |
| GGCATGTACAACAAGACCTGGGTACGTTAATTAATTACTCCGGAGTCACCTAGTGCAG | 3170 fluorescence intensity (a.u.) |
| AGATGTAGTTAGGAGTCTGACTTTTATCTCAAGTTAGCATCGGAGTCACCTAGTGCAG | 29500 fluorescence intensity (a.u.) |
| TCTCGCCTACCACCAAGCTCATCTCGTTTCGTTAGCTACCCGGAGTCACCTAGTGCAG | 41600 fluorescence intensity (a.u.) |
| TTAGATAGAGCCACGTGGCGGCCTATGAGCGTTTCTAGGACGGAGTCACCTAGTGCAG | 13800 fluorescence intensity (a.u.) |
| TTCAACTGACTAGACTTGGTCTCTCTCTCTCGCCCTGCCCCGGAGTCACCTAGTGCAG | 3450 fluorescence intensity (a.u.) |
| TTGTTGGGTGGGGACGTGGGGTGGGGTTCATGGAGTGGTTCGGAGTCACCTAGTGCAG | 6530 fluorescence intensity (a.u.) |
| GCGGCCGGCGGCGAGGTCGCGGACGGGGAGGTGGGGCGCGCGGAGTCACCTAGTGCAG | 3600 fluorescence intensity (a.u.) |

Pulled one by one from above (3):

| Sequence | binding signal |
| --- | --- |
| AGATGTAGTTAGGAGTCTGACTTTTATCTCAAGTTAGCATCGGAGTCACCTAGTGCAG | 29500 fluorescence intensity (a.u.) |
| CGAGCCGGAGACTCTGGCGGCGGCGTCGCGCGTTCGAGGACGGAGTCACCTAGTGCAG | 5840 fluorescence intensity (a.u.) |
| AGGTGGGCAATGGCATCCGAGTCACCAAGTGGGGCCCACCCGGAGTCACCTAGTGCAG | 7750 fluorescence intensity (a.u.) |

(cont.)

| Sequence | binding signal |
| --- | --- |
| GTGGACAAGGCCCACCGGGGACACGCGGCCCCAGCCCGCACGGAGTCACCTAGTGCAG | 4310 fluorescence intensity (a.u.) |
| CAACTGCAATTTGTGCAAATACACAGTCACACTCATCTCCCGGAGTCACCTAGTGCAG | 4400 fluorescence intensity (a.u.) |
| AAATAACATCACAGTTCGCTATCGTCATCCTATTCCTAGGCGGAGTCACCTAGTGCAG | 5990 fluorescence intensity (a.u.) |
| GCTAATTTGACTCGGTTTTCATCTGACGTGGCATTGACGTCGGAGTCACCTAGTGCAG | 41400 fluorescence intensity (a.u.) |
| ATCATCCTGGATCCCCGTCACGCGAACGGGTTAGCTAAGCCGGAGTCACCTAGTGCAG | 5860 fluorescence intensity (a.u.) |
| CGCCATCGCCTACTAAGCTAGCGTGTATGCTTCCAACAACCGGAGTCACCTAGTGCAG | 3880 fluorescence intensity (a.u.) |
| TATGGAGTTTACTATTCTCCTGATTATTACAAAATTTATACGGAGTCACCTAGTGCAG | 30000 fluorescence intensity (a.u.) |
| CTCCATGGGCCCGTACTCGTGCCACGTGTCAATCCTGTGGCGGAGTCACCTAGTGCAG | 12400 fluorescence intensity (a.u.) |
| AACGCCATGTTTTACGTTTTCCCGCGACTTTGTTGGCGCGCGGAGTCACCTAGTGCAG | 13300 fluorescence intensity (a.u.) |
| GAGATCGGCCGTATACTAGAGCTGATGTGTTTAAGGTCGTCGGAGTCACCTAGTGCAG | 3180 fluorescence intensity (a.u.) |
| ATTCCTATACCATGTGTATGCGTGTGTGATATGGACACTCCGGAGTCACCTAGTGCAG | 3190 fluorescence intensity (a.u.) |
| TTTCTTTGGTTCAGCTGAACCATTATTTGTTGTTTTACTTCGGAGTCACCTAGTGCAG | 40700 fluorescence intensity (a.u.) |
| TCCAGCCCCAGCTCTGGCTGACAAGGATTAACCCCAGATACGGAGTCACCTAGTGCAG | 5390 fluorescence intensity (a.u.) |
| CGCTGCACGCCAGGCGCACCGGCTGGTACGTGTACGTCCCCGGAGTCACCTAGTGCAG | 3420 fluorescence intensity (a.u.) |
| TCTGATGTCAAGTTGGTGACATGTTGCCAATCAATTCCAGCGGAGTCACCTAGTGCAG | 4580 fluorescence intensity (a.u.) |
| TGATTGTAGTTTCTACAGTAGCAAGACAGCACGTGGCAGTCGGAGTCACCTAGTGCAG | 4070 fluorescence intensity (a.u.) |
| CGCGCCACGCGTCGCTCTGAGCCGCCGCCAACCACCAAACCGGAGTCACCTAGTGCAG | 23700 fluorescence intensity (a.u.) |
| CCCACCCCGGGACCCTAATTCGTCAGCTCTCTACCGAAGTCGGAGTCACCTAGTGCAG | 4030 fluorescence intensity (a.u.) |
| CTGACGTTGGCATATAGGTAAGATGCTGATTGGTTGCGAACGGAGTCACCTAGTGCAG | 6270 fluorescence intensity (a.u.) |
| GATTGCTGTTTCACTTACAAATGGATCCCATGTGTCTTTTCGGAGTCACCTAGTGCAG | 3920 fluorescence intensity (a.u.) |
| CCTCTCCCACGTCCGCGCGCCGCCGGCTCCCTCCGCCGCCCGGAGTCACCTAGTGCAG | 4700 fluorescence intensity (a.u.) |
